# ± gives the standard deviation of the averaged measurements. The list shows a part of the results.
# How the values were obtained:
# Assay in all cases: NP40-soluble protein abundance relative to vehicle (solubility fold change) (ratio); higher = more soluble protein in presence of GTP
# CDS2 = target: T1, CDS2 (UniProt O95674)
# T1 sequence (whole entry): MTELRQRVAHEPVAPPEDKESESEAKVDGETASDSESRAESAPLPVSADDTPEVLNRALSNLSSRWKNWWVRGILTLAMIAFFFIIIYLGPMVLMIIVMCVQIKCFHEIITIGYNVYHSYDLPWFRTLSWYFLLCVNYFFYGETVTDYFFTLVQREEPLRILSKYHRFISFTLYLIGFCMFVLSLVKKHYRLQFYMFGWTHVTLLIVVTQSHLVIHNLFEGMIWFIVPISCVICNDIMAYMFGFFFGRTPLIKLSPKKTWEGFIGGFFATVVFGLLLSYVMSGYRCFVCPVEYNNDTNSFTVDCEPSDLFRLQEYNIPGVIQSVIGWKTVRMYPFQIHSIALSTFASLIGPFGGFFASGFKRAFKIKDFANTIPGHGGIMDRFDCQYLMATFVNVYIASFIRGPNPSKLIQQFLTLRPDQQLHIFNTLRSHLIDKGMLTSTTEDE
# Method in brief: (§1)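 In three independent experiments, Jurkat crude lysate made by Dounce homogenisation was treated for 10 min at room temperature and then 3 min at 37 °C with eight concentrations ranging from 0.1 to 10 mM. It was then solubilised with 0.8% NP40 plus benzonase for 60 min at 4 °C and ultracentrifuged. The supernatant was TMT-labelled for LC-MS/MS, and each value is the fold change against the detergent-processed vehicle for the same replicate, using vsn-normalised intensities.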
# CSDE1 = target: T2, CSDE1 (UniProt O75534)
# T2 sequence (whole entry): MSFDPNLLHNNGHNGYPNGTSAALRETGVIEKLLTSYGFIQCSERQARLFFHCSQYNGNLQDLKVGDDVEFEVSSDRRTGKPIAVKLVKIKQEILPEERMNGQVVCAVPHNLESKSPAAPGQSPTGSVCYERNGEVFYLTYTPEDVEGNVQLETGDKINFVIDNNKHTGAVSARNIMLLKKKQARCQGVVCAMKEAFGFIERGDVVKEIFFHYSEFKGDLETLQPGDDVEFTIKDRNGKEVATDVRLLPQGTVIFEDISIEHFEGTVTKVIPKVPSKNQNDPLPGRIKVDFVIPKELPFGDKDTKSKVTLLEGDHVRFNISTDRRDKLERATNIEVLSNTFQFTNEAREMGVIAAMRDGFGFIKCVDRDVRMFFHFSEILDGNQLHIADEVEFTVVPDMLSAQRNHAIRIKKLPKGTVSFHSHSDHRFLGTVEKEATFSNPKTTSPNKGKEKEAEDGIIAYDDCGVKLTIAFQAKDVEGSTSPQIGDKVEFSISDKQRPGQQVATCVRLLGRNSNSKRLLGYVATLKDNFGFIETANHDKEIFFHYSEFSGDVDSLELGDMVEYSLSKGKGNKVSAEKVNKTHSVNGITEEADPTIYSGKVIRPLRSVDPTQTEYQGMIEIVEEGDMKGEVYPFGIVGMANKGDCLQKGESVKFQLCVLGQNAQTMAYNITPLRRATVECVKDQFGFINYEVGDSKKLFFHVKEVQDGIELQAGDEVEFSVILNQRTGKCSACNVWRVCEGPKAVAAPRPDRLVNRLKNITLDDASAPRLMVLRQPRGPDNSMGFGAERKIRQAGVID
# Method in brief: as §1
# CSTB = target: T3, CSTB (UniProt P04080)
# T3 sequence (whole entry): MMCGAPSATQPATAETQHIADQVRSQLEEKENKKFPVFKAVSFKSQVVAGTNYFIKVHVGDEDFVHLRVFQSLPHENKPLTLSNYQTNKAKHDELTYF
# Method in brief: as §1
# GLA = target: T4, GLA (UniProt P06280)
# T4 sequence (whole entry): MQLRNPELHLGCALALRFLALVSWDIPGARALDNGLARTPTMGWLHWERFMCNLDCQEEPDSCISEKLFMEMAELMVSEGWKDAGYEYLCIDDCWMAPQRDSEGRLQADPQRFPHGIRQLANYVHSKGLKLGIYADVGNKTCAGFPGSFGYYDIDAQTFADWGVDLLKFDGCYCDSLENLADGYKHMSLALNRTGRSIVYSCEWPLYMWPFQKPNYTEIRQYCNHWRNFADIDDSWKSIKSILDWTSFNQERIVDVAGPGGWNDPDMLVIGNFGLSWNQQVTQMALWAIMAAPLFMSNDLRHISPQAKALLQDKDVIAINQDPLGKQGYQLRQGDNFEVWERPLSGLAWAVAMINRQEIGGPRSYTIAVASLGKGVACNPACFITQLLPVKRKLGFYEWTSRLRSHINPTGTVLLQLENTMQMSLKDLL
# Method in brief: as §1
# SEC24A = target: T5, SEC24A (UniProt O95486)
# T5 sequence (whole entry): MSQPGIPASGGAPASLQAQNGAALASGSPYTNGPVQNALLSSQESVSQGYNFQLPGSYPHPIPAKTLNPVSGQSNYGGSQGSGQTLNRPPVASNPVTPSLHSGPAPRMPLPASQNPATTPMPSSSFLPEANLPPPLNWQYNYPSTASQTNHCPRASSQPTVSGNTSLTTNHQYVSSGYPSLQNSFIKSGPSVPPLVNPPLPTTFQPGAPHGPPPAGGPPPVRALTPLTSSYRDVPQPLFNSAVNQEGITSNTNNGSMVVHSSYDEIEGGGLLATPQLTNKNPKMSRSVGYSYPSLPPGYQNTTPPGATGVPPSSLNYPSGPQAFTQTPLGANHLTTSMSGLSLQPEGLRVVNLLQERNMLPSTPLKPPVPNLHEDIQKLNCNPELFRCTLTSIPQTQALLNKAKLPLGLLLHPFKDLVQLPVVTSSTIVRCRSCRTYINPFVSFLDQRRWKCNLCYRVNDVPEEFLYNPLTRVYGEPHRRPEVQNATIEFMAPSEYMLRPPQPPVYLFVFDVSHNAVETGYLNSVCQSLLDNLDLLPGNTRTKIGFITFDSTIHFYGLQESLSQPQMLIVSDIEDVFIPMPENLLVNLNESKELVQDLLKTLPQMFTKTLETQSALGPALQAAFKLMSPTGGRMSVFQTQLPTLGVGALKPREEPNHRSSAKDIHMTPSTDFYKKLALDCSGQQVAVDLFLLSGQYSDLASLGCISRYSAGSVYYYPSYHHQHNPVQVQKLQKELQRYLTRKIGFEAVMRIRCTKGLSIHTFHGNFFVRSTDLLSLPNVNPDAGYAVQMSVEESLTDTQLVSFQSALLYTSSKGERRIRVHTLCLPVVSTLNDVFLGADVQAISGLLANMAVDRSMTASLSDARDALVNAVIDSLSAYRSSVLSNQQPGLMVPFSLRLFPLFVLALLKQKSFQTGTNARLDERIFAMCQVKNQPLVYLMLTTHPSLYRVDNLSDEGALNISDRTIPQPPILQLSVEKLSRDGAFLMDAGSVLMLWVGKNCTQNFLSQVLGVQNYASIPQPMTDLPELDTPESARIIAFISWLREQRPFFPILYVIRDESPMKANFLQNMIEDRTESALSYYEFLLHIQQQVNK
# Method in brief: as §1
# SPAG7 = target: T6, SPAG7 (UniProt O75391)
# T6 sequence (whole entry): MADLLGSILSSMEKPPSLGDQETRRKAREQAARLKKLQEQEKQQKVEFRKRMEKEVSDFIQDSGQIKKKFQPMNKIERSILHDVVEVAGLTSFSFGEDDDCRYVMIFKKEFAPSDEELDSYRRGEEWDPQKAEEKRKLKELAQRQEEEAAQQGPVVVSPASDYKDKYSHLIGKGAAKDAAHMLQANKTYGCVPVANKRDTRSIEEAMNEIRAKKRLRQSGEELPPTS
# Method in brief: as §1
# USP1 = target: T7, USP1 (UniProt O94782)
# T7 sequence (whole entry): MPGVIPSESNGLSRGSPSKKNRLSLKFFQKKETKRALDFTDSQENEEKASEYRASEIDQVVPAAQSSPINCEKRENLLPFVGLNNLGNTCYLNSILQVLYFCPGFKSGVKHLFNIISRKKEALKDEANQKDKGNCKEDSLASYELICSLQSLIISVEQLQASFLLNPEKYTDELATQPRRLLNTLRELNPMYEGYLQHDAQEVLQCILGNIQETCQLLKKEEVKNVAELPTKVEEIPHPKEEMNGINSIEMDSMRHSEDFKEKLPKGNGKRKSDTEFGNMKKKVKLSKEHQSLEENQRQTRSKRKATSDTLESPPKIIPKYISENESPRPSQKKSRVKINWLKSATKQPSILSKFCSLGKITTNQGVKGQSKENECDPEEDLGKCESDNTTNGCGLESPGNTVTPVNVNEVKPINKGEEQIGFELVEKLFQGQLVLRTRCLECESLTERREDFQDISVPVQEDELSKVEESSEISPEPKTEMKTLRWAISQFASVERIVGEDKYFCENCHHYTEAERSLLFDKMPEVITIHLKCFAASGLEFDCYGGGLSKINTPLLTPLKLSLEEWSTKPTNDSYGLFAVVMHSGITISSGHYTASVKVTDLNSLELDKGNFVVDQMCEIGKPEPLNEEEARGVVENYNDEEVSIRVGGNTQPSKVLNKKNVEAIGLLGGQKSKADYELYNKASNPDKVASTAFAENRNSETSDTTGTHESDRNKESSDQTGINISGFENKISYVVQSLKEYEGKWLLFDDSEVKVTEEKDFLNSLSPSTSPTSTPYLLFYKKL
# Method in brief: as §1
smiles,measurement,setting,value
Nc1nc2c(ncn2[C@@H]2O[C@H](COP(=O)(O)OP(=O)(O)OP(=O)(O)O)[C@@H](O)[C@H]2O)c(=O)[nH]1 [guanosine triphosphate],NP40-soluble protein abundance,CDS2; concentration: 0.1mM,1.1 ± 0.075
same,NP40-soluble protein abundance,CDS2; concentration: 0.5mM,1 ± 0.12
same,NP40-soluble protein abundance,CDS2; concentration: 1mM,0.858 ± 0.026
same,NP40-soluble protein abundance,CDS2; concentration: 2mM,0.924 ± 0.046
same,NP40-soluble protein abundance,CDS2; concentration: 4mM,0.868 ± 0.077
same,NP40-soluble protein abundance,CDS2; concentration: 6mM,0.841 ± 0.12
same,NP40-soluble protein abundance,CDS2; concentration: 8mM,0.831 ± 0.076
same,NP40-soluble protein abundance,CDS2; concentration: 10mM,0.862 ± 0.13
same,NP40-soluble protein abundance,CSDE1; concentration: 0.1mM,0.9909 ± 0.0073
same,NP40-soluble protein abundance,CSDE1; concentration: 0.5mM,1.01 ± 0.037
same,NP40-soluble protein abundance,CSDE1; concentration: 1mM,0.9433 ± 0.0032
same,NP40-soluble protein abundance,CSDE1; concentration: 2mM,0.925 ± 0.024
same,NP40-soluble protein abundance,CSDE1; concentration: 4mM,0.916 ± 0.023
same,NP40-soluble protein abundance,CSDE1; concentration: 6mM,0.909 ± 0.027
same,NP40-soluble protein abundance,CSDE1; concentration: 8mM,0.906 ± 0.021
same,NP40-soluble protein abundance,CSDE1; concentration: 10mM,0.859 ± 0.045
same,NP40-soluble protein abundance,CSTB; concentration: 0.1mM,0.962 ± 0.066
same,NP40-soluble protein abundance,CSTB; concentration: 0.5mM,0.917 ± 0.037
same,NP40-soluble protein abundance,CSTB; concentration: 1mM,1.03 ± 0.095
same,NP40-soluble protein abundance,CSTB; concentration: 2mM,0.977 ± 0.086
same,NP40-soluble protein abundance,CSTB; concentration: 4mM,0.983 ± 0.11
same,NP40-soluble protein abundance,CSTB; concentration: 6mM,0.963 ± 0.11
same,NP40-soluble protein abundance,CSTB; concentration: 8mM,1.01 ± 0.14
same,NP40-soluble protein abundance,CSTB; concentration: 10mM,0.975 ± 0.087
same,NP40-soluble protein abundance,GLA; concentration: 0.1mM,1.04 ± 0.017
same,NP40-soluble protein abundance,GLA; concentration: 0.5mM,1.04 ± 0.018
same,NP40-soluble protein abundance,GLA; concentration: 1mM,1.01 ± 0.039
same,NP40-soluble protein abundance,GLA; concentration: 2mM,0.982 ± 0.068
same,NP40-soluble protein abundance,GLA; concentration: 4mM,0.985 ± 0.063
same,NP40-soluble protein abundance,GLA; concentration: 6mM,0.966 ± 0.087
same,NP40-soluble protein abundance,GLA; concentration: 8mM,0.983 ± 0.04
same,NP40-soluble protein abundance,GLA; concentration: 10mM,0.979 ± 0.048
same,NP40-soluble protein abundance,SEC24A; concentration: 0.1mM,0.974 ± 0.013
same,NP40-soluble protein abundance,SEC24A; concentration: 0.5mM,0.986 ± 0.021
same,NP40-soluble protein abundance,SEC24A; concentration: 1mM,0.926 ± 0.041
same,NP40-soluble protein abundance,SEC24A; concentration: 2mM,0.909 ± 0.026
same,NP40-soluble protein abundance,SEC24A; concentration: 4mM,0.957 ± 0.019
same,NP40-soluble protein abundance,SEC24A; concentration: 6mM,0.944 ± 0.02
same,NP40-soluble protein abundance,SEC24A; concentration: 8mM,0.909 ± 0.027
same,NP40-soluble protein abundance,SEC24A; concentration: 10mM,0.915 ± 0.036
same,NP40-soluble protein abundance,SPAG7; concentration: 0.1mM,0.906 ± 0.06
same,NP40-soluble protein abundance,SPAG7; concentration: 0.5mM,0.848 ± 0.081
same,NP40-soluble protein abundance,SPAG7; concentration: 1mM,0.997 ± 0.071
same,NP40-soluble protein abundance,SPAG7; concentration: 2mM,0.908 ± 0.066
same,NP40-soluble protein abundance,SPAG7; concentration: 4mM,0.896 ± 0.095
same,NP40-soluble protein abundance,SPAG7; concentration: 6mM,0.909 ± 0.13
same,NP40-soluble protein abundance,SPAG7; concentration: 8mM,0.897 ± 0.14
same,NP40-soluble protein abundance,SPAG7; concentration: 10mM,0.899 ± 0.061
same,NP40-soluble protein abundance,USP1; concentration: 0.1mM,1.06 ± 0.14
same,NP40-soluble protein abundance,USP1; concentration: 0.5mM,0.994 ± 0.047
same,NP40-soluble protein abundance,USP1; concentration: 1mM,1.02 ± 0.053
same,NP40-soluble protein abundance,USP1; concentration: 2mM,0.98 ± 0.063

# Two records picked at random from those above, as already listed:
smiles,measurement,setting,value
Nc1nc2c(ncn2[C@@H]2O[C@H](COP(=O)(O)OP(=O)(O)OP(=O)(O)O)[C@@H](O)[C@H]2O)c(=O)[nH]1 [guanosine triphosphate],NP40-soluble protein abundance,SPAG7; concentration: 10mM,0.899 ± 0.061
same,NP40-soluble protein abundance,CSDE1; concentration: 0.5mM,1.01 ± 0.037

# Reference: the supplement of paper PMC6411743
